Test results as given in doi:10.1101/352724.
Results are given in words; binding and its absence hold for the method and conditions named. Binding seen in cells or lysates may run through a third protein. A result given as binding can be weak or reduced; the word gives no strength.

Amino acid sequences for entries named in this document (tags omitted). A change or cut given only in a name is not applied to a line headed by its entry.
UniProt P10637: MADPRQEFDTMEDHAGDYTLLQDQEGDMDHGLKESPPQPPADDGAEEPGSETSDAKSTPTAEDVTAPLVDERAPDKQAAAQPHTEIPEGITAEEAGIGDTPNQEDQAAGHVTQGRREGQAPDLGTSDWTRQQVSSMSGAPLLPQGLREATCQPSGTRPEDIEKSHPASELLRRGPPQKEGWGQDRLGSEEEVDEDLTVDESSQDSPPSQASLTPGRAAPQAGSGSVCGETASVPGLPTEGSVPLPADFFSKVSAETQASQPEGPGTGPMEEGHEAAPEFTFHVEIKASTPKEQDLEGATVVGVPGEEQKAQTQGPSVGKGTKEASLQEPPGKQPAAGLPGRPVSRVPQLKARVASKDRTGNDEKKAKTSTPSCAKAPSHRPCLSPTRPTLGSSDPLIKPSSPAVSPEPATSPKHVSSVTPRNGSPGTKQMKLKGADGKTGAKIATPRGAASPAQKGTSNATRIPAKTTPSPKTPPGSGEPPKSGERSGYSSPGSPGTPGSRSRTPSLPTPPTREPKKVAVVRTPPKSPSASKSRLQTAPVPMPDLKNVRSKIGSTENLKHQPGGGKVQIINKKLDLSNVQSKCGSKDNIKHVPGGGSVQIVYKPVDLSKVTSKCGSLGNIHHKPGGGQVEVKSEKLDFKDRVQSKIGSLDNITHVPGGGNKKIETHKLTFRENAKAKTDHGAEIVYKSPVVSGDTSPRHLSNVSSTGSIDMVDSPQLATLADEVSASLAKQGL
UniProt O14964: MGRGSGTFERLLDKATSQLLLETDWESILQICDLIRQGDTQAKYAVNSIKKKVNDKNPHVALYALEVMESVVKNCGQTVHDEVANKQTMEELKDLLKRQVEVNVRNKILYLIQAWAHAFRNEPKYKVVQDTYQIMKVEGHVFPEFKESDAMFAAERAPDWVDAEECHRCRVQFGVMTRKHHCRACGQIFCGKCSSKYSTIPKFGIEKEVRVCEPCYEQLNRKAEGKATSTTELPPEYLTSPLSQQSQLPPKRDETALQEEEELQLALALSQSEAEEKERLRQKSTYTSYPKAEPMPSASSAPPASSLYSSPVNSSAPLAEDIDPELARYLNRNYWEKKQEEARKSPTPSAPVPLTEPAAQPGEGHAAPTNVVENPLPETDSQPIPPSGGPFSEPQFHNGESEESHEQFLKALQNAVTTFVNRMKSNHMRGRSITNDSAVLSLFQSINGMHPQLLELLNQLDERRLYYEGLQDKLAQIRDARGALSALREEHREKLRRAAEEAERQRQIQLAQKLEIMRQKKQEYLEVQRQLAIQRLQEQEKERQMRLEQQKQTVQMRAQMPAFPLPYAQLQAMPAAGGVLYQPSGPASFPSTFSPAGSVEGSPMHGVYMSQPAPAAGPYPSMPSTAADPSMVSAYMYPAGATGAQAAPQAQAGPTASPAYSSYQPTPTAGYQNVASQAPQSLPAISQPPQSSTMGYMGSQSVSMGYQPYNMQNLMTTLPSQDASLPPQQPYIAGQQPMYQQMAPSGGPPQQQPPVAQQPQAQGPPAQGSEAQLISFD

Target: Tau (endogenous, total Tau detected with DA9) (mouse (endogenous in N2a)) (UniProt P10637)
Assay: proximity ligation

| binding | Substance |
| --- | --- |
| binds | mCh-tagged Hrs (from UniProt O14964 1-777) |
| binds | FLAG-Hrs (from UniProt O14964 1-777) |
